# Results reported in patent US9580524B2, “Vinylcyclopropane, monomer composition, polymer, polymer composition, and article” (Dexerials Corporation, priority 2014, dated 2017).
# Test: Volume change upon polymerization (monomer and polymer density by dry automatic pycnometer)
# Format: physicochemical
# Conditions: polymerization with AIBN, 48 hours at 60° C.
# Procedure: Volume change relative to monomer volume refers to the change in volume of the polymer relative to the volume of the monomer or monomers that are constituent components of the polymer. This volume change relative to monomer volume is obtained through the following equation by measuring the density of the monomer(s) at 25° C. prior to polymerization (monomer density) and the density of the polymer at 25° C. after polymerization (polymer density). ((Monomer density)−(Polymer density))/(Monomer density)×100(%)
# First, polymerization of the obtained monomer (compound represented by structural formula (6)) was performed as follows.
# A freezing ampoule (20 mL) was charged with 4.03 mg of AIBN (4 mol %), 440.2 mg (0.61 mmol) of Ad-MVCP, and 0.267 g (0.31 mL) of toluene, and the monomer was dissolved. Thereafter, freeze drying was performed three times and dissolved oxygen was removed. The freezing ampoule was immersed in an oil bath and was heated for 48 hours at 60° C. to polymerize the monomer. After polymerization, the freezing ampoule was cooled by liquid nitrogen to quench radicals. Next, 50 mL of toluene was added to the freezing ampoule in order to dissolve undissolved components other than the polymer and suction filtration was then performed. Polymer filtered onto filter paper as a result was washed with toluene and acetone, was vacuum dried for 48 hours at 100° C., and was collected as a white solid polymer. The collected polymer was used as an evaluation sample.
# The volume change upon polymerization was calculated using the following equation by measuring the monomer density and polymer density of each sample prepared by the procedure described above using a dry automatic pycnometer (AccuPyc II 1340 produced by Shimadzu Corporation). ((Monomer density)−(Polymer density))/(Monomer density)×100(%)
# A positive calculated value indicates volume expansion whereas a negative calculated value indicates volume shrinkage.
# Note that in Comparative Example 3, polymerization of the monomer was performed by bulk polymerization based on the aforementioned document. […]
row,Molecule,Conversion rate
1,"C=CC1CC1(C(=O)OC12CC3CC(CC(C3)C1)C2)C(=O)OC12CC3CC(C1)CC(OC(=O)C1(C(=O)OC45CC6CC(CC(C6)C4)C5)CC1C=C)(C3)C2 (stereo not drawn) [Example 1, 1,3-bis[(1-adamantyloxycarbonyl-2-vinylcyclopropane-1-yl)carbonyloxy]adamantane]",98.0%
2,tricyclodecane dimethanol dimethacrylate [Comparative Example 1],89.4%
3,"C=CC1CC1(C(=O)OC12CC3CC(CC(C3)C1)C2)C(=O)OC12CC3CC(CC(C3)C1)C2 (stereo not drawn) [Comparative Example 2, 1,1-bis[(1-adamantyloxy)carbonyl]-2-vinylcyclopropane]",99.0%
